Source: patent publication US20040044037A1, “Amidino-urea serotonin receptor ligands and compositions, their pharmaceutical uses, and methods for their snythesis” (priority 2003, published 2004)
The structures given here were assigned with low confidence; some may be wrong.

Amino acid sequences for entries named in this document (tags omitted). Residues count along the entry.
UniProt P34969, 1-432 limits assumed: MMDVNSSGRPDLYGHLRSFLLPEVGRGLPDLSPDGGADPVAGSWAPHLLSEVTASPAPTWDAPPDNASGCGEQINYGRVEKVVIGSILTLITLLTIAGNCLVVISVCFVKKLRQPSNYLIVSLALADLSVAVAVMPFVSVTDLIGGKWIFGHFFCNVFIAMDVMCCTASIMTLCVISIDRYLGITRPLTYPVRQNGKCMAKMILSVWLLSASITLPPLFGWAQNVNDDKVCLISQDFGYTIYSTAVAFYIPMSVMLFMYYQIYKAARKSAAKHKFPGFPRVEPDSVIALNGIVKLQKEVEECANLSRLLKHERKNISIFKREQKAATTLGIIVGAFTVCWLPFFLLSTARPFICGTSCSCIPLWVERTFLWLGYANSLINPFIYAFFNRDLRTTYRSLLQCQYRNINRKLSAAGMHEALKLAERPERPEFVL

Biological target: human 5-HT7B (h5-HT7b) receptors (Homo sapiens, UniProt P34969)
Test: Competition radioligand binding, h5-HT7b
Conditions: read-out: Ki 5-HT7; [3H]5-CT; membranes of HEK 293 cells

Ki: > 4 µM
SMILES: N=C(NC(=O)NC1CCCCC1O)N1CCc2ccccc2C1 (stereo not shown)
